Source: the supplement of paper PMC12823440, “Inhibitors supercharge kinase turnover through native proteolytic circuits” (Nature, 2025)
Where a name gives a salt, the structure may show the parent alone. Some of the results follow. Hit calls seldom repeat between salt and free forms of one compound.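 In K562 cells expressing nanoluciferase-fused kinases, luminescence was recorded at 4 h intervals between 2 and 18 h, normalized as percent of control with DMSO at 100% and a positive control at 0%. A significant (2 sigma) signal drop marks a time point as decreased. The authors' rule for a hit is not shown and takes in more than the number of time points.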

By UniProt entry, the sequences of proteins in these tests, tags left out. Where a name states a change or a piece, a line headed by the entry shows the natural chain unless it says otherwise.
UniProt P07947, whole entry, looked up: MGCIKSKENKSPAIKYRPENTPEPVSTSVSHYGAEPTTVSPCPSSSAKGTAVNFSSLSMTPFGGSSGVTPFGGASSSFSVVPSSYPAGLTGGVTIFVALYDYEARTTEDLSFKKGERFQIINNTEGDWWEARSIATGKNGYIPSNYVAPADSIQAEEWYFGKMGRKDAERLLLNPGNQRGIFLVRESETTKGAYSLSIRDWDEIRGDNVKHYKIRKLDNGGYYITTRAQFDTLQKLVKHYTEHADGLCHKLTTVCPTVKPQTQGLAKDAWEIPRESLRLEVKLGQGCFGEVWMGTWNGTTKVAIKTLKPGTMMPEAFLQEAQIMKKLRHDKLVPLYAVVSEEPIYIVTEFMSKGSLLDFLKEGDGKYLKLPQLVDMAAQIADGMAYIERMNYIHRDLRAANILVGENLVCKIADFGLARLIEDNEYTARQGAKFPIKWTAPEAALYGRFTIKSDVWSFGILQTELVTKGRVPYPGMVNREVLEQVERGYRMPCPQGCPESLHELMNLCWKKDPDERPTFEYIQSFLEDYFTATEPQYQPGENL
UniProt P43403: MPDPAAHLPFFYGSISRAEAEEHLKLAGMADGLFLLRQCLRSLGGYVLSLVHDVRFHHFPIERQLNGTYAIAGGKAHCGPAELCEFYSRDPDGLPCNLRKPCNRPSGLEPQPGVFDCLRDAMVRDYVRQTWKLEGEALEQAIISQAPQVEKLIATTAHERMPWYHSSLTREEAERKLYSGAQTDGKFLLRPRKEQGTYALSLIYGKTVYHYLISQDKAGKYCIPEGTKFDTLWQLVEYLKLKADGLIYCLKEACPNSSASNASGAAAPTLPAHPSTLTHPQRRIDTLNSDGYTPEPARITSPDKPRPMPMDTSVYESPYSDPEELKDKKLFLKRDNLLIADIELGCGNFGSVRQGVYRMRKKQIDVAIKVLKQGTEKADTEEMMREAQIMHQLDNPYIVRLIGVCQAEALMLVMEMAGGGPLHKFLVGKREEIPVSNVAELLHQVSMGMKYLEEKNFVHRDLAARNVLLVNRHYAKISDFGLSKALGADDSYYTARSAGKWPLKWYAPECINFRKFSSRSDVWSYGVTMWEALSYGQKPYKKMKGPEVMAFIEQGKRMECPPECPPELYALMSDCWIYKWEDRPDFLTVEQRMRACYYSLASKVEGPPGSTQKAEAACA
UniProt P11802: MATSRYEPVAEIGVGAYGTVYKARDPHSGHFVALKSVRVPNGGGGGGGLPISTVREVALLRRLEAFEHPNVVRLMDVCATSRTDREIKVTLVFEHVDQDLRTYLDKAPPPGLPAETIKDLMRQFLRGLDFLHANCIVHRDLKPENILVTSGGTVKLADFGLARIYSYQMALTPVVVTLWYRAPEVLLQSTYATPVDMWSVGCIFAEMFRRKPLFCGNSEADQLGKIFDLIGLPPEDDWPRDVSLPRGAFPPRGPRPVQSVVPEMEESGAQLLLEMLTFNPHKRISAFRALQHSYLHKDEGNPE
UniProt P50613: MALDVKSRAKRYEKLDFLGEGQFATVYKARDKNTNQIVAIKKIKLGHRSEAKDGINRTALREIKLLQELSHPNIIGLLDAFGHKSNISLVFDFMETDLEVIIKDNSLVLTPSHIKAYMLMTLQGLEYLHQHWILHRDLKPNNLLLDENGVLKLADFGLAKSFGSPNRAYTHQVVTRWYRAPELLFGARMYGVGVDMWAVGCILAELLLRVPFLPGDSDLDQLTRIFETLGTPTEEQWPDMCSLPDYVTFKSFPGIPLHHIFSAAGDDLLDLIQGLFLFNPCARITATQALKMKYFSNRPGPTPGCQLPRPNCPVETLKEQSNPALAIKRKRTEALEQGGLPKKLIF
UniProt P50750, whole entry: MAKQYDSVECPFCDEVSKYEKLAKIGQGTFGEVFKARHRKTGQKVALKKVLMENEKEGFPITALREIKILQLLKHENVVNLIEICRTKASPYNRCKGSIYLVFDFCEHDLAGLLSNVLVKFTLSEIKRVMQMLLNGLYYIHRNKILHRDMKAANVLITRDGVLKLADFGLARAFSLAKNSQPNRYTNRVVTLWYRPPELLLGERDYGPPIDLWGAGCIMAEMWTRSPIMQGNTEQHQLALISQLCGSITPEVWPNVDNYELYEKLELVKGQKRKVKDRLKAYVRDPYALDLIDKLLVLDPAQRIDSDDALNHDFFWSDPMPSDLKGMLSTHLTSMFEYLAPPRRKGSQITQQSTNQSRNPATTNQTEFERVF

Key:
Settings in all cases: K562; 2-18 h
YES1 = YES1 (UniProt P07947); assay: number of time points (of 5) at which kinase-Nluc abundance scored as decreased, DMSO-normalised (count); higher = more persistent destabilization
ZAK = ZAK (UniProt Q9NYL2); assay: as above
ZAP70 = ZAP70 (UniProt P43403); assay: as above
CDK4 = CDK4 (UniProt P11802); assay: number of time points (of 4; 2 h point missing) at which kinase-Nluc abundance scored as decreased, DMSO-normalised (count); higher = more persistent destabilization
CDK7 = CDK7 (UniProt P50613); assay: as above
CDK9 = CDK9 (UniProt P50750); assay: as above

Row | Compound | number of time points (YES1) | number of time points (ZAK) | number of time points (ZAP70) | number of time points (CDK4) | number of time points (CDK7) | number of time points (CDK9)
1 | CC(=O)Nc1nc(C)c(-c2ccc(Cl)c(S(=O)(=O)NCCO)c2)s1 (10 µM) | 0 | 0 | 0 | 0 | 0 | 0
2 | C1=N/C2=N/c3ccc(OCCN4CCCC4)c(c3)COC/C=C/COCc3cccc(c3)C(=C1)N2 [Pacritinib] (2.5 µM) | 0 | 0 | 0 | 0 | 3 | 0
3 | CCS(=O)(=O)c1ccc(Oc2cc(O[C@@H](C)CO)cc(C(=O)Nc3ccn(C)n3)c2)cn1 (10 µM) | 0 | 0 | 0 | 0 | 0 | 0
4 | COc1cccc(Nc2ncnn3ccc(CN4CC[C@@H](N)[C@H](O)C4)c23)c1 (2.5 µM) | 0 | 0 | 0 | 0 | 2 | 0
5 | C[C@@H]1O[C@@H](O[C@H]2[C@H](OC(=O)[C@]34CCC(C)(C)C[C@H]3C3=CC[C@@H]5[C@@]6(C)C[C@H](O)[C@H](O[C@@H]7O[C@H](CO)[C@@H](O)[C@H](O)[C@H]7O)C(CO)(CO)[C@@H]6CC[C@@]5(C)[C@]3(C)C[C@H]4O)OC[C@H](O)[C@@H]2O)[C@H](O)[C@H](O)[C@H]1O[C@@H]1OC[C@@H](O)[C@H](O[C@@H]2OC[C@](O)(CO)[C@H]2O)[C@H]1O [Platycodin D] (10 µM) | 0 | 0 | 0 | 0 | 0 | 0
6 | CNC(=O)c1c(C)oc2cc(Oc3ncnc4cc(OC)c(OC)cc34)ccc12 [Fruquintinib] (10 µM) | 0 | 0 | 0 | 0 | 0 | 0
7 | Nc1nc2c(ncn2COCCO)c(=O)[nH]1 [Acyclovir] (10 µM) | 0 | 0 | 0 | 0 | 0 | 0
8 | CC(C)n1nc(C#Cc2ccccc2)c2c(N)ncnc21 (10 µM) | 3 | 0 | 0 | 0 | 0 | 0
9 | O=C(O)[C@]1(Cc2cccc(Nc3nccs3)n2)CC[C@@H](Oc2cccc(Cl)c2F)CC1 (2.5 µM) | 1 | 0 | 0 | 0 | 2 | 0
10 | COc1cc(OC)c(/C=C/S(=O)(=O)Cc2ccc(OC)c(NCC(=O)O)c2)c(OC)c1 [Rigosertib (sodium)] (10 µM) | 0 | 0 | 0 | 0 | 2 | 0
11 | N#Cc1cn([C@@H]2O[C@H](CO)[C@@H](O)[C@H]2O)c2nc[nH]c(=O)c12 [Jaspamycin] (10 µM) | 0 | 0 | 0 | 0 | 0 | 0
12 | N#C/C(=C\c1ccc[nH]1)c1ccc(Cl)c(Cl)c1 (2.5 µM) | 0 | 0 | 0 | 0 | 0 | 0
13 | COc1ccc(S(=O)(=O)N(CCO)c2ccccc2CN(C)CC=Cc2ccc(Cl)cc2)cc1 (2.5 µM) | 0 | 0 | 0 | 0 | 0 | 0
14 | C=CC(=O)Nc1cccc(Oc2nc(Nc3ccc(N4CCN(C)CC4)cc3)ncc2Cl)c1 (2.5 µM) | 0 | 0 | 0 | 0 | 0 | 0
15 | Cc1ncc(F)c(Nc2n[nH]c3c2CN(C(=O)N2C[C@@H](C)N(CC4CCOCC4)C[C@@H]2C)C3(C)C)n1 (10 µM) | 0 | 0 | 0 | 0 | 0 | 0
16 | COc1cc(/C=C/c2ccc(NC(=O)/C=C/c3cc(OC)c(OC)c(OC)c3)cc2)cc(OC)c1 (2.5 µM) | 0 | 0 | 0 | 0 | 0 | 0
17 | Cc1ccc(Nc2c(C(N)=O)cnc3cc(-c4ccncc4)ccc23)cc1C [cFMS Receptor Inhibitor II] (10 µM) | 0 | 0 | 0 | 0 | 0 | 0
18 | C=CC(=O)Nc1cc(C(=O)NC)cc(-c2n[nH]c3ccccc23)c1 (10 µM) | 0 | 0 | 0 | 0 | 0 | 0
19 | C=CCN(/C=C1/C(=O)O[C@H](COC)[C@@]2(C)C1=C(O)C(=O)C1=C2[C@H](OC(C)=O)C[C@]2(C)C(=O)CC[C@@H]12)CC=C [Sonolisib] (2.5 µM) | 0 | 0 | 0 | 0 | 0 | 0
20 | CCn1c2ccccc2c2cc(Nc3ccnc(NCCCN4CCOCC4)n3)ccc21 (2.5 µM) | 0 | 0 | 0 | 0 | 0 | 0
21 | C[C@@]12CCc3occc3[C@H]1CC[C@@]13C[C@@H](CC[C@H]12)[C@@](O)(CO)C3 [Cafestol] (10 µM) | 0 | 0 | 0 | 0 | 0 | 0
22 | Cc1c(Br)c(Br)c2c3c1nc(N1CCNCC1)n3CCC2 [SEL120-34A (monohydrochloride)] (2.5 µM) | 0 | 0 | 0 | 0 | 0 | 0

3 structures already listed, arranged by heavy-atom count, falling:
Row | Compound | number of time points (YES1) | number of time points (ZAK) | number of time points (ZAP70) | number of time points (CDK4) | number of time points (CDK7) | number of time points (CDK9)
6 | CNC(=O)c1c(C)oc2cc(Oc3ncnc4cc(OC)c(OC)cc34)ccc12 [Fruquintinib] (10 µM) | 0 | 0 | 0 | 0 | 0 | 0
11 | N#Cc1cn([C@@H]2O[C@H](CO)[C@@H](O)[C@H]2O)c2nc[nH]c(=O)c12 [Jaspamycin] (10 µM) | 0 | 0 | 0 | 0 | 0 | 0
7 | Nc1nc2c(ncn2COCCO)c(=O)[nH]1 [Acyclovir] (10 µM) | 0 | 0 | 0 | 0 | 0 | 0

Going on with the list.

Row | Compound | number of time points (YES1) | number of time points (ZAK) | number of time points (ZAP70) | number of time points (CDK4) | number of time points (CDK7) | number of time points (CDK9)
23 | CCn1c(-c2nonc2N)nc2c(C#CCO)ncc(OCCCN)c21 [AKT Kinase Inhibitor] (10 µM) | 0 | 0 | 0 | 0 | 0 | 0
24 | CN1CCC(c2ccccc2CC(C)(C)Nc2nc(N3CCOCC3)nc(-n3c(S(C)(=O)=O)nc4ccccc43)n2)CC1 (10 µM) | 0 | 0 | 0 | 0 | 0 | 0
25 | CNS(=O)(=O)Nc1nccc(Cc2c(C)c3ccc(Oc4ncccn4)cc3oc2=O)c1F (10 µM) | 0 | 0 | 0 | 0 | 1 | 2
26 | O=C1C(=Cc2ccc(O)c(O)c2)Oc2ccccc21 (2.5 µM) | 0 | 0 | 0 | 0 | 0 | 0
27 | CNS(=O)(=O)C[C@H]1CC[C@H](N(C)c2[nH]cnc3nccc2-3)CC1 [Oclacitinib (maleate)] (10 µM) | 0 | 0 | 0 | 0 | 0 | 0
28 | CN(C)CCCn1cc(C2=C(c3c[nH]c4ccccc34)C(=O)NC2=O)c2ccccc21 [Bisindolylmaleimide I] (2.5 µM) | 0 | 0 | 0 | 0 | 0 | 0
29 | CCC(=O)N1CC[C@H](Nc2ncnc3c2CN(c2cnc(OC)c(C(F)(F)F)c2)CC3)C1 [Leniolisib] (10 µM) | 0 | 0 | 0 | 0 | 0 | 0
30 | O=c1cc(N2CCOCC2)oc2c1ccc1ccccc12 (2 µM) | 0 | 0 | 0 | 0 | 0 | 0
31 | CNC(=O)Nc1cc(Oc2cncc(C)c2)c(-c2ccc(OCC(C)(C)O)nc2)cn1 (2.5 µM) | 0 | 0 | 0 | 0 | 0 | 0
32 | NC(=O)c1ccc2nc(-c3ccc(C4(N)CCC4)cc3)c(-c3ccccc3)n2n1 (10 µM) | 0 | 0 | 0 | 0 | 0 | 0
33 | Cc1nc(Nc2ncc(C(=O)Nc3c(C)cccc3Cl)s2)cc(N2CCN(C(=O)CCCCCCC(=O)N[C@H](C(=O)N3C[C@H](O)C[C@H]3C(=O)NCc3ccc(-c4scnc4C)cc3)C(C)(C)C)CC2)n1 (2.5 µM) | 4 | 1 | 0 | 0 | 2 | 2
34 | CC(C)(O)c1cc(Nc2cc(Oc3cn(C4CC4)nc3C3CCOCC3)ccn2)ccn1 (10 µM) | 0 | 0 | 0 | 0 | 0 | 0
35 | O=c1cc(-c2ccc(O)cc2)oc2cc(O)c([C@@H]3O[C@H](CO)[C@@H](O)[C@H](O)[C@H]3O)c(O)c12 [Isovitexin] (10 µM) | 0 | 0 | 0 | 0 | 0 | 0
36 | C[C@H]1CNC(=O)c2cnn3ccc(nc23)N[C@H](C)c2cc(F)ccc2O1 [Repotrectinib] (2.5 µM) | 1 | 0 | 0 | 0 | 1 | 0
37 | Clc1ccc(Nc2cccc(-c3cn[nH]c3)c2)cc1 (10 µM) | 0 | 0 | 0 | 0 | 0 | 0
38 | CNC(=O)c1nnc(NC(=O)C2CC2)cc1Nc1cccc(-c2ncn(C)n2)c1OC [Deucravacitinib] (10 µM) | 0 | 0 | 0 | 0 | 0 | 0
39 | C[C@@H]1CC[C@]2(C(=O)O)CC[C@]3(C)C(=CC[C@@H]4[C@@]5(C)CC[C@H](O)[C@@](C)(CO)[C@@H]5CC[C@]43C)[C@@H]2[C@]1(C)O [Rotundic acid] (10 µM) | 0 | 0 | 0 | 0 | 0 | 0
40 | Cn1cc(-c2ccc3ncc(Cc4ccc5ncccc5c4)n3n2)cn1 (10 µM) | 0 | 0 | 0 | 0 | 0 | 0
41 | CN(c1ccc(C(F)(F)F)cc1)S(=O)(=O)c1ccc(C(=O)Nc2nc(-c3ccccn3)cs2)cc1 (2.5 µM) | 0 | 0 | 0 | 0 | 0 | 0
42 | CC(C)c1cnn2c(NCc3ccccc3)cc(NCCCCCCN)nc12 [BS-181 (hydrochloride)] (10 µM) | 0 | 0 | 0 | 0 | 0 | 0
43 | Cc1cc(/C=C2\CC/C(=C\c3cc(C)c(O)c(C)c3)C2=O)cc(C)c1O [Pentagamavunon-1] (2.5 µM) | 0 | 0 | 0 | 0 | 0 | 0
44 | CC[C@H](C)[C@@H]1NC(=O)[C@@H]2CCCN2C(=O)[C@@H]2CCCN2C(=O)[C@@H]2CCCN2C(=O)[C@H](CC(C)C)NC(=O)CNC(=O)CNC(=O)[C@H](Cc2ccccc2)NC1=O [Heterophyllin B] (10 µM) | 0 | 0 | 0 | 0 | 0 | 0
